This is an account of results in publication PMC4449203.

Protein sequences, listed by entry. Tags and fused reporters are not part of them. Residues count along the entry.
UniProt P22607, residues 23-806: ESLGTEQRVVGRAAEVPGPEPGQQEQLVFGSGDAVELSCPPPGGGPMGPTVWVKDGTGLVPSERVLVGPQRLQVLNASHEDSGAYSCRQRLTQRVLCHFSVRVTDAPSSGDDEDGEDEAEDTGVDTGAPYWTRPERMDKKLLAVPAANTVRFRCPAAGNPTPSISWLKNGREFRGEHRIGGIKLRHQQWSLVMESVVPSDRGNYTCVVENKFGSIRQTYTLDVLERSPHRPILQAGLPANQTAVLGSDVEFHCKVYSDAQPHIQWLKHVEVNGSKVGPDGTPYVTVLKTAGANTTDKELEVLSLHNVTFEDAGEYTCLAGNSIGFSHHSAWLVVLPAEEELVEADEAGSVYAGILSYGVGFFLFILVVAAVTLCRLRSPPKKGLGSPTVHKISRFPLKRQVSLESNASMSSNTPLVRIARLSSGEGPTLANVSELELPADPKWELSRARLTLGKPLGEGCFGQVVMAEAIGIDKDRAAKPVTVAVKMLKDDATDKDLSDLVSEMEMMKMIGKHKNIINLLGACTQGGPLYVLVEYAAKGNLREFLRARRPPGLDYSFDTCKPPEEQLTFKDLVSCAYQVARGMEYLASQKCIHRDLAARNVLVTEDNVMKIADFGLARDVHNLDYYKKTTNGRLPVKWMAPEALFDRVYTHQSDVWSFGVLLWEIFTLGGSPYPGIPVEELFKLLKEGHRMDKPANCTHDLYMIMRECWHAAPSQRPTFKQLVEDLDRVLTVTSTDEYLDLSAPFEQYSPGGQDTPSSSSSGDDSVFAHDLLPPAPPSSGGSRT
UniProt P11362, residues 22-822: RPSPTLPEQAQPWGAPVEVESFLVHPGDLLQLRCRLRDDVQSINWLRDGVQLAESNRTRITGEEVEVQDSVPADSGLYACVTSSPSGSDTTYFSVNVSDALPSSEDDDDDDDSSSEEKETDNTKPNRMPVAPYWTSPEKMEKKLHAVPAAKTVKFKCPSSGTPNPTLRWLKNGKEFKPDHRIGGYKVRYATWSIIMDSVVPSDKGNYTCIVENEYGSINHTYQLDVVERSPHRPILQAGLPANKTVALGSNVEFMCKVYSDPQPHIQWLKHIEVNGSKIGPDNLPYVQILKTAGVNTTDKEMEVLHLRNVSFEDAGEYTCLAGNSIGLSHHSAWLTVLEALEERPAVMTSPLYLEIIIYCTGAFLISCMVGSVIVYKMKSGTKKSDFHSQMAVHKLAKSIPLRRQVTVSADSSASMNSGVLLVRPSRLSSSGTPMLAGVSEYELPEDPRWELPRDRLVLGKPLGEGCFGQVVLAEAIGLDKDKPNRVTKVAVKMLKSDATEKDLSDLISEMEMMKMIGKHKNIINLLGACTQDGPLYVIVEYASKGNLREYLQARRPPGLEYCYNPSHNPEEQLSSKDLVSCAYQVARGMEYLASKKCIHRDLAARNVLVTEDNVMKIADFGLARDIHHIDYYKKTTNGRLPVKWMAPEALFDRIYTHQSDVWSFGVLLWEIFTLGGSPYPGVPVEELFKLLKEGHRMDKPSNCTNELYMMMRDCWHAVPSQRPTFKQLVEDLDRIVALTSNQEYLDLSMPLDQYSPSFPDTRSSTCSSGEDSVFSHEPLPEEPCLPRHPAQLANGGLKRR
UniProt P29317, residues 24-976: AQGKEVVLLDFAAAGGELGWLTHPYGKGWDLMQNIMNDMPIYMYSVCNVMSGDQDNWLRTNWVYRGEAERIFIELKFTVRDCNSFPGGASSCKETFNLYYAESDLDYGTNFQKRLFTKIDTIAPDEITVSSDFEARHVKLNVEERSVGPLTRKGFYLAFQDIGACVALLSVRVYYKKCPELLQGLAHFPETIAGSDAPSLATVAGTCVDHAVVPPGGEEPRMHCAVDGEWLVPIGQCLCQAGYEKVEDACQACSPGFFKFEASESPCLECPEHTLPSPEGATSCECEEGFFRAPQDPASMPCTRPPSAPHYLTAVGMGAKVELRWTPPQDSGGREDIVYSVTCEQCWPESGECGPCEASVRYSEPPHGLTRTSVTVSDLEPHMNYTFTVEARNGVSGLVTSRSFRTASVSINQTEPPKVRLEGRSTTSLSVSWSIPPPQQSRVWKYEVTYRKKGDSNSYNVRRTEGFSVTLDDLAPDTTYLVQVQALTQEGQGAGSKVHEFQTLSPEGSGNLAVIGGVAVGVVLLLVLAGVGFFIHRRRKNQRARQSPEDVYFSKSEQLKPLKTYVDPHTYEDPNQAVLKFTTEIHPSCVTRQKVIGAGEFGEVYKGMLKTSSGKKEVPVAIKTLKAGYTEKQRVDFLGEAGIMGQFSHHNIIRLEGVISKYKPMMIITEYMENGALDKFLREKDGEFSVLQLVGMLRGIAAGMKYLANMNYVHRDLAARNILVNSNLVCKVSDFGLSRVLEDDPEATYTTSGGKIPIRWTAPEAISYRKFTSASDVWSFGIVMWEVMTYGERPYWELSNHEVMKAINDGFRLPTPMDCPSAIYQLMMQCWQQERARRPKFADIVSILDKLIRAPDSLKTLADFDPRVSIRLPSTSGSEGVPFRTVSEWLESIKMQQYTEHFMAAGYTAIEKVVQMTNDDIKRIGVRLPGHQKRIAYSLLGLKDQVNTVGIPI
UniProt P54756, residues 25-1037: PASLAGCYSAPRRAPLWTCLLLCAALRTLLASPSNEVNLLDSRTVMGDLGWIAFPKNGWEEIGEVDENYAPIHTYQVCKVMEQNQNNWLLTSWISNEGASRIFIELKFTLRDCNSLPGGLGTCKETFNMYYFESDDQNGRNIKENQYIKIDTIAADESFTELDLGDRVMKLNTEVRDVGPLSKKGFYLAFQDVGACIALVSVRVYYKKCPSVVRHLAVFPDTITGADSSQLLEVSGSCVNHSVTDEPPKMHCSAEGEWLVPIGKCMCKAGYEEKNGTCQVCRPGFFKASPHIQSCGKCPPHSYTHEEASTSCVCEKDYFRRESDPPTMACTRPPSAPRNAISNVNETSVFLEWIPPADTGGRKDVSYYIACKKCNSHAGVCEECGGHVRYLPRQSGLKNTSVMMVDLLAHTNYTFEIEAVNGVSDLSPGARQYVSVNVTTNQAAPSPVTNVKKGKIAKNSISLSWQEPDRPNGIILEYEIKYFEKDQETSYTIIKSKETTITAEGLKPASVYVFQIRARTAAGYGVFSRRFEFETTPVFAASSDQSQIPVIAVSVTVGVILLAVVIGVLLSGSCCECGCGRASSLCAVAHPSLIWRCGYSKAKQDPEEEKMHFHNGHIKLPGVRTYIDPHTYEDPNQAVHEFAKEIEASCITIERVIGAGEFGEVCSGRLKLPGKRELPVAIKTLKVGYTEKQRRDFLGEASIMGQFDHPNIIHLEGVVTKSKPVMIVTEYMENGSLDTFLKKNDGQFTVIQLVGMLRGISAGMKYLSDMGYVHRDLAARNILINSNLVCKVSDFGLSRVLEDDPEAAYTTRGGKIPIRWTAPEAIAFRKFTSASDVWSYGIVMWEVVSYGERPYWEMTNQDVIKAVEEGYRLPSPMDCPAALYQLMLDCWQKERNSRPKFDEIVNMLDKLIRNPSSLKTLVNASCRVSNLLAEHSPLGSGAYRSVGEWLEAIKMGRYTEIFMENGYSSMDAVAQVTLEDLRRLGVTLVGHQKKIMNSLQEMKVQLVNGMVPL
UniProt Q15375, residues 28-998: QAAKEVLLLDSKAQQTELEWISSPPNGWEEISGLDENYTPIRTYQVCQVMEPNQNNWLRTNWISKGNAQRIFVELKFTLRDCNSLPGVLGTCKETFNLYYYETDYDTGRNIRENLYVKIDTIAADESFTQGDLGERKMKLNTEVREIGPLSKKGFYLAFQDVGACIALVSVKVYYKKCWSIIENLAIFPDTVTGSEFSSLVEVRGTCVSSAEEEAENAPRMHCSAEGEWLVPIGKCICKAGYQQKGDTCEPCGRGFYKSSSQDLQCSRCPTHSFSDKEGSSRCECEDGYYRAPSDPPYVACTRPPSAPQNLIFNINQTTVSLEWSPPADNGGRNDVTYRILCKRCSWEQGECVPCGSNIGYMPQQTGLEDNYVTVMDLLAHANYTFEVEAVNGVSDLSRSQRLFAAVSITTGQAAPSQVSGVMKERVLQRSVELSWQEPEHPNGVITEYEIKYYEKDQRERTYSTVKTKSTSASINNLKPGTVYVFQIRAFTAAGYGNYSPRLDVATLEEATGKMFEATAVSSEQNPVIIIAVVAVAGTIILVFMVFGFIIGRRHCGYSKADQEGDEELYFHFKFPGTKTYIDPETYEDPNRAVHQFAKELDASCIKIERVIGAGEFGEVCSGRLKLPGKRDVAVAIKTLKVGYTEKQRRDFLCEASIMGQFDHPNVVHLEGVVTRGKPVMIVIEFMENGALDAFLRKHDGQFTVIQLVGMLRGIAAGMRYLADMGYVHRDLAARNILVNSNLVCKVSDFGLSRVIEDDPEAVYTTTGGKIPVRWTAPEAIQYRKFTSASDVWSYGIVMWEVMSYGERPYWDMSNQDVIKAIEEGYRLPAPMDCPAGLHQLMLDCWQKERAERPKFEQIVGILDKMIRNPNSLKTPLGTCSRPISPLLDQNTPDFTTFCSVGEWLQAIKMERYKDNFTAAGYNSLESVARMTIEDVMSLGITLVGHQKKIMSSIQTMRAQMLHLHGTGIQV

Results are given in words; binding and its absence hold for the method and conditions named. Binding seen in cells or lysates may run through a third protein. Some results given as binding are weak or reduced against the parent protein; the word gives no strength. Where a sequence is shown, tags or fusion partners need not be part of it.

One assay addresses FGFR3-HA (UniProt P22607). The assay is described as follows: co-IP; FGFR1-HA or FGFR3-HA co-expressed with Flag-tagged EphA and increasing doses of ΔJM,KD-EGFP in HEK293T cells; immunoprecipitation, SDS-PAGE and immunoblotting with the antibodies shown in the figure.
In another assay the target is FGFR1-HA (UniProt P11362). The assay is described as above.

“Flag-tagged EphA2 (from UniProt P29317 24-976) (receptor)”: the binding result with FGFR3-HA and with FGFR1-HA was “binds” each time.
“Flag-tagged EphA5 (from UniProt P54756 25-1037) (receptor)”: the binding result with FGFR3-HA and in the assay with FGFR1-HA was “binds” throughout.
On to “Flag-tagged EphA7 (from UniProt Q15375 28-998) (receptor)”, for which the binding entry with FGFR3-HA and in the assay with FGFR1-HA was “binds” in each case.

B1: Flag-tagged EphA1 (receptor, UniProt P21709 26-976)
chain: KEVTLMDTSKAQGELGWLLDPPKDGWSEQQQILNGTPLYMYQDCPMQGRRDTDHWLRSNWIYRGEEASRVHVELQFTVRDCKSFPGGAGPLGCKETFNLLYMESDQDVGIQLRRPLFQKVTTVAADQSFTIRDLVSGSVKLNVERCSLGRLTRRGLYLAFHNPGACVALVSVRVFYQRCPETLNGLAQFPDTLPGPAGLVEVAGTCLPHARASPRPSGAPRMHCSPDGEWLVPVGRCHCEPGYEEGGSGEACVACPSGSYRMDMDTPHCLTCPQQSTAESEGATICTCESGHYRAPGEGPQVACTGPPSAPRNLSFSASGTQLSLRWEPPADTGGRQDVRYSVRCSQCQGTAQDGGPCQPCGVGVHFSPGARGLTTPAVHVNGLEPYANYTFNVEAQNGVSGLGSSGHASTSVSISMGHAESLSGLSLRLVKKEPRQLELTWAGSRPRSPGANLTYELHVLNQDEERYQMVLEPRVLLTELQPDTTYIVRVRMLTPLGPGPFSPDHEFRTSPPVSRGLTGGEIVAVIFGLLLGAALLLGILVFRSRRAQRQRQQRQRDRATDVDREDKLWLKPYVDLQAYEDPAQGALDFTRELDPAWLMVDTVIGEGEFGEVYRGTLRLPSQDCKTVAIKTLKDTSPGGQWWNFLREATIMGQFSHPHILHLEGVVTKRKPIMIITEFMENGALDAFLREREDQLVPGQLVAMLQGIASGMNYLSNHNYVHRDLAARNILVNQNLCCKVSDFGLTRLLDDFDGTYETQGGKIPIRWTAPEAIAHRIFTTASDVWSFGIVMWEVLSFGDKPYGEMSNQEVMKSIEDGYRLPPPVDCPAPLYELMKNCWAYDRARRPHFQKLQAHLEQLLANPHSLRTIANFDPRMTLRLPSLSGSDGIPYRTVSEWLESIRMKRYILHFHSAGLDTMECVLELTAEDLTQMGITLPGHQKRILCSIQGFKD
B1: the binding result with FGFR3-HA and with FGFR1-HA was “binds” each time.

B2: Flag-tagged EphA3 (receptor, UniProt P29320 21-983)
chain: ELIPQPSNEVNLLDSKTIQGELGWISYPSHGWEEISGVDEHYTPIRTYQVCNVMDHSQNNWLRTNWVPRNSAQKIYVELKFTLRDCNSIPLVLGTCKETFNLYYMESDDDHGVKFREHQFTKIDTIAADESFTQMDLGDRILKLNTEIREVGPVNKKGFYLAFQDVGACVALVSVRVYFKKCPFTVKNLAMFPDTVPMDSQSLVEVRGSCVNNSKEEDPPRMYCSTEGEWLVPIGKCSCNAGYEERGFMCQACRPGFYKALDGNMKCAKCPPHSSTQEDGSMNCRCENNYFRADKDPPSMACTRPPSSPRNVISNINETSVILDWSWPLDTGGRKDVTFNIICKKCGWNIKQCEPCSPNVRFLPRQFGLTNTTVTVTDLLAHTNYTFEIDAVNGVSELSSPPRQFAAVSITTNQAAPSPVLTIKKDRTSRNSISLSWQEPEHPNGIILDYEVKYYEKQEQETSYTILRARGTNVTISSLKPDTIYVFQIRARTAAGYGTNSRKFEFETSPDSFSISGESSQVVMIAISAAVAIILLTVVIYVLIGRFCGYKSKHGADEKRLHFGNGHLKLPGLRTYVDPHTYEDPTQAVHEFAKELDATNISIDKVVGAGEFGEVCSGRLKLPSKKEISVAIKTLKVGYTEKQRRDFLGEASIMGQFDHPNIIRLEGVVTKSKPVMIVTEYMENGSLDSFLRKHDAQFTVIQLVGMLRGIASGMKYLSDMGYVHRDLAARNILINSNLVCKVSDFGLSRVLEDDPEAAYTTRGGKIPIRWTSPEAIAYRKFTSASDVWSYGIVLWEVMSYGERPYWEMSNQDVIKAVDEGYRLPPPMDCPAALYQLMLDCWQKDRNNRPKFEQIVSILDKLIRNPGSLKIITSAAARPSNLLLDQSNVDITTFRTTGDWLNGVWTAHCKEIFTGVEYSSCDTIAKISTDDMKKVGVTVVGPQKKIISSIKALETQSKNGPVPV
On to B2, for which the binding entry in the assay with FGFR3-HA and in the assay with FGFR1-HA was “binds” each time.
